Measured values from paper doi:10.1101/2021.09.01.458560.

Chains of the proteins cited; added tags and fusions are not shown. Lines headed by an entry give the natural chain unless they say otherwise; changes in a name come on top.
UniProt F7J0N2: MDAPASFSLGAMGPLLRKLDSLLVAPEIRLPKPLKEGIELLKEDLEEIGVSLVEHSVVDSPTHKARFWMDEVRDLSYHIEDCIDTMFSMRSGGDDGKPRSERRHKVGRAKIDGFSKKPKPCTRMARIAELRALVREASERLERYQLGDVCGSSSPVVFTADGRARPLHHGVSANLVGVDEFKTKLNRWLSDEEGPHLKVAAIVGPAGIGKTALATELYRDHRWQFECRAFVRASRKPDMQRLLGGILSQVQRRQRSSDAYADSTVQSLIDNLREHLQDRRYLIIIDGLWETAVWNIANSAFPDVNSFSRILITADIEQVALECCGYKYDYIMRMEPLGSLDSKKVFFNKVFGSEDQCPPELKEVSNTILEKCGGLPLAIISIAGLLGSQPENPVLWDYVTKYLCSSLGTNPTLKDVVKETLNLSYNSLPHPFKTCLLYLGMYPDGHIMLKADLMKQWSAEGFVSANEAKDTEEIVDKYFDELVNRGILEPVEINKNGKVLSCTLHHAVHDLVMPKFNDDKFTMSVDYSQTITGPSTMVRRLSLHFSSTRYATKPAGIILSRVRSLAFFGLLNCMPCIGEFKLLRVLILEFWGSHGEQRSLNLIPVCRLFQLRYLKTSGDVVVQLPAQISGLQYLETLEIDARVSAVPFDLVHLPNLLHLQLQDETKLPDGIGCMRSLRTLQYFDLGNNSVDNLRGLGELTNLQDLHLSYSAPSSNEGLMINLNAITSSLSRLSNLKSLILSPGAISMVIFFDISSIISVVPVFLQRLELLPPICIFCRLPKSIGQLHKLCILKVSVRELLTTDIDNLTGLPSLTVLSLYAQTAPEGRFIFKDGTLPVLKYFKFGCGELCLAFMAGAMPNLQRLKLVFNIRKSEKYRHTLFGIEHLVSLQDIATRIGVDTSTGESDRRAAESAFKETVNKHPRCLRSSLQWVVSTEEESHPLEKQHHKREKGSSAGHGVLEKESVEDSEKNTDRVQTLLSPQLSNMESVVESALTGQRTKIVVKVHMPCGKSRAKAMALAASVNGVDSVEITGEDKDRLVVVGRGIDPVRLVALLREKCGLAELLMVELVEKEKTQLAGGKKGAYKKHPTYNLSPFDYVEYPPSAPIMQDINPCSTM
UniProt F7J0M4: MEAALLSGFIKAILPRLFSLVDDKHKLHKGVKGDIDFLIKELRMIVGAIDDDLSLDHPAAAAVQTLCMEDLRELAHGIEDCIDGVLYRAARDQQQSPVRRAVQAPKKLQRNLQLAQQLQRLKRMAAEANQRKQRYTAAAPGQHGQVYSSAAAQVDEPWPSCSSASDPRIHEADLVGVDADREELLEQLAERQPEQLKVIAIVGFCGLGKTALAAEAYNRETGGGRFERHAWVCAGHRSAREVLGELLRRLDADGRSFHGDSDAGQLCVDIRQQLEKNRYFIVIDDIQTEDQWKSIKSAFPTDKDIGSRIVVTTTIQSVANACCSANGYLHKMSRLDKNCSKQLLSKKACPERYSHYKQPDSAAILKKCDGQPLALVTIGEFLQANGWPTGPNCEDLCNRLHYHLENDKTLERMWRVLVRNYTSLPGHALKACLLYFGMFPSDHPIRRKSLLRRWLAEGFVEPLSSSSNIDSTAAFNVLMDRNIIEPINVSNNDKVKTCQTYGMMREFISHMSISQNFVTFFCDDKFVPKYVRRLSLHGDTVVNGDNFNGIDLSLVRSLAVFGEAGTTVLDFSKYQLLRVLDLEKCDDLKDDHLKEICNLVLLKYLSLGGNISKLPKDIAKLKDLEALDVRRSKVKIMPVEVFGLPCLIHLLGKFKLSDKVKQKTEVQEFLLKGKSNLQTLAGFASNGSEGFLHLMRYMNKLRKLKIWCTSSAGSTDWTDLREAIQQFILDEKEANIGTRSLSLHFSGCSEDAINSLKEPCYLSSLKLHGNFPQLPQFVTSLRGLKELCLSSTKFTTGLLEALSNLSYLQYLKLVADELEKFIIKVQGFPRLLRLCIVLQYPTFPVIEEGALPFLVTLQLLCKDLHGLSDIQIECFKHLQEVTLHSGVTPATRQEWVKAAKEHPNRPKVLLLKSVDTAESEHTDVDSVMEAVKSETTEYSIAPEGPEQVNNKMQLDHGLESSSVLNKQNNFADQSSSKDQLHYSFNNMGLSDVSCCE

Target: FLAG:RGA5 (Oryza sativa subsp. japonica, Sasanishiki) (UniProt F7J0N2)
Assay: co-IP

Question: “RGA4 (MHD mutant):HA (from UniProt F7J0M4) (receptor)” was tested. Which binding did it give?
Answer: binds

These are yes or no findings as the source states them, for the method shown. In cells and extracts the contact can be indirect. A result given as binding can be weak or reduced; the word gives no strength.
